Laboratory results as given in PMC12582974.

By UniProt entry, the sequences of proteins in these tests, tags left out.
UniProt Q9Y265: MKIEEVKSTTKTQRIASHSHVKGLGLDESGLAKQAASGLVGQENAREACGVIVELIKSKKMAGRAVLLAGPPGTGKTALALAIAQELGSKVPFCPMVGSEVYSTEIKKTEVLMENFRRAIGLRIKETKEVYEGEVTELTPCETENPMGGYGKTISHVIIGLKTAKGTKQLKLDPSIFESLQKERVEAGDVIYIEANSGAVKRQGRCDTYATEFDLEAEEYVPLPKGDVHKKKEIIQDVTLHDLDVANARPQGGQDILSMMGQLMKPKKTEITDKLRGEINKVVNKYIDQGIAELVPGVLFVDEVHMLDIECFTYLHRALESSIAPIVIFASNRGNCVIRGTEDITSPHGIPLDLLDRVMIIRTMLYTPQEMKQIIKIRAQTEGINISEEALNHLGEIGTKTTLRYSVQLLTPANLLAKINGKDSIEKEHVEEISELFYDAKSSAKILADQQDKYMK
UniProt Q9Y4R8: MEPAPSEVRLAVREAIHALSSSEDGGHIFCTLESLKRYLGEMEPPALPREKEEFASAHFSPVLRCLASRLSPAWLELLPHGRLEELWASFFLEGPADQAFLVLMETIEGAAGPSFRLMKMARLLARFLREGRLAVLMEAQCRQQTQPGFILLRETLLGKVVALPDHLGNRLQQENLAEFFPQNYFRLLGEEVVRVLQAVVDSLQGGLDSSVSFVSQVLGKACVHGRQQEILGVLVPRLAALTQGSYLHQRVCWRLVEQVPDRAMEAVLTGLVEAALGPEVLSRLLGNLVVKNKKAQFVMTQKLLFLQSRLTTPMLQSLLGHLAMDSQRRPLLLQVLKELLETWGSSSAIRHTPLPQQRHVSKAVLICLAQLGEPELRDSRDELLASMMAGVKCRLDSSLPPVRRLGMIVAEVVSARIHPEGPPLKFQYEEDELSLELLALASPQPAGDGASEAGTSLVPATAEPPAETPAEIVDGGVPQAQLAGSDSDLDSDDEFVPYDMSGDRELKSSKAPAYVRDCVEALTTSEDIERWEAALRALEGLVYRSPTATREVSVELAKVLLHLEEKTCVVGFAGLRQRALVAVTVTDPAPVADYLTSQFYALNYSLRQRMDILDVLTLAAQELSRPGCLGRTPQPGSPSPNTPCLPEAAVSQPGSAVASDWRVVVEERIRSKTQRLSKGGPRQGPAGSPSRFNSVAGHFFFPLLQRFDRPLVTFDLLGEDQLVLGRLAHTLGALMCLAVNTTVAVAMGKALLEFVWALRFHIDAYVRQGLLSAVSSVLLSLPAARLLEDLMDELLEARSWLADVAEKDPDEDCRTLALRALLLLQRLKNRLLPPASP
UniProt Q8N122: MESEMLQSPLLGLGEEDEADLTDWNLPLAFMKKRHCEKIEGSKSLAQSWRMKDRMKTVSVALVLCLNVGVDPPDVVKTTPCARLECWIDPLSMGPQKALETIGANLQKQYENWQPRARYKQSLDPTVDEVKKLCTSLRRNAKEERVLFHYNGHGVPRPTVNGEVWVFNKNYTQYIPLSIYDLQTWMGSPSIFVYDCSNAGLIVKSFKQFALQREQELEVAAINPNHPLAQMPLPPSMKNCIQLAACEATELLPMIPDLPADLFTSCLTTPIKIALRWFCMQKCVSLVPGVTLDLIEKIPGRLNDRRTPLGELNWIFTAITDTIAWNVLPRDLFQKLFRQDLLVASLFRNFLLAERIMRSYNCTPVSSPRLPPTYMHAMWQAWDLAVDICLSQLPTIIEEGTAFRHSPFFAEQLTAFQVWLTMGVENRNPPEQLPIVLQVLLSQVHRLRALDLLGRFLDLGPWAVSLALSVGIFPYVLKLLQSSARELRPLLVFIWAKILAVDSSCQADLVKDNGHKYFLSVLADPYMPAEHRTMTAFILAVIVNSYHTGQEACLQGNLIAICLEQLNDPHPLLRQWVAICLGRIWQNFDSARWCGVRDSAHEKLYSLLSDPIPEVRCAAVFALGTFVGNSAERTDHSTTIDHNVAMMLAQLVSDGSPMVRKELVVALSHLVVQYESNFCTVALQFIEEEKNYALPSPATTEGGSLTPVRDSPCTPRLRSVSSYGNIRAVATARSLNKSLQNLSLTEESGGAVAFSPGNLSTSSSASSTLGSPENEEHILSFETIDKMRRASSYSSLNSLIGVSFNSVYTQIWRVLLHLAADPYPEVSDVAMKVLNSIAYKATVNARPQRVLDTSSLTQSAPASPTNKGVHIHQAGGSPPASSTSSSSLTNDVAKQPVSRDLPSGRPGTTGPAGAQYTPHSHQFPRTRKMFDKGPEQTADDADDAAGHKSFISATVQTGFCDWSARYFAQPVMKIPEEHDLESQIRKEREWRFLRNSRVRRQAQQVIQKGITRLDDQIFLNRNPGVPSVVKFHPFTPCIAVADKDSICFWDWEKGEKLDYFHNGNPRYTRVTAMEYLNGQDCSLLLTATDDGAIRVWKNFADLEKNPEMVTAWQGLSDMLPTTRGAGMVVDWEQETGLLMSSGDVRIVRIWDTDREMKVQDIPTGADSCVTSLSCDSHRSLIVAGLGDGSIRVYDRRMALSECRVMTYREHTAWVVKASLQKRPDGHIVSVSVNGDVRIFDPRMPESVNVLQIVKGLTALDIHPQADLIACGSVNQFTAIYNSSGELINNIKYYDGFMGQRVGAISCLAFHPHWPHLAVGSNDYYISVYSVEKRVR

Target: T1, endogenous WAC (human (endogenous in HEK293T)) (UniProt Q9BTA9)
T1 sequence: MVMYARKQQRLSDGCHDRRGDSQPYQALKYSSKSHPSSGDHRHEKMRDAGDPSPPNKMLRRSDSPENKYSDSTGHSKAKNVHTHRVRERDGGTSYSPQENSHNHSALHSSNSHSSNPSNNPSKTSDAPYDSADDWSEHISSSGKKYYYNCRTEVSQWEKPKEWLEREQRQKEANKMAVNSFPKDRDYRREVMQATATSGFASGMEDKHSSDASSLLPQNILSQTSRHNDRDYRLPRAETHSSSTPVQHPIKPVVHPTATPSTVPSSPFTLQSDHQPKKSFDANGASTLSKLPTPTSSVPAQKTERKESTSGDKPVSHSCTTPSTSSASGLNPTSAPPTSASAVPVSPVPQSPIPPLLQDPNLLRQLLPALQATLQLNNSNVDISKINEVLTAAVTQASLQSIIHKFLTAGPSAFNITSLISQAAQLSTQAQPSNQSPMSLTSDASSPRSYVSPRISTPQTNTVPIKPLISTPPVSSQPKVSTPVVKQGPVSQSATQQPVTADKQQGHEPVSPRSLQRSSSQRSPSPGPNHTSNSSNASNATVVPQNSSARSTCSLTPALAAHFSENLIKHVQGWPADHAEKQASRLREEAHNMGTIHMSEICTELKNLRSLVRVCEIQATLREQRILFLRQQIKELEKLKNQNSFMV
Assay: affinity purification with mass spectrometry; endogenous WAC immunoprecipitated with a WAC antibody from HEK293T lysate; interactors identified by mass spectrometry

| binding | Substance |
| --- | --- |
| binds | endogenous RUVBL1 (from UniProt Q9Y265 1-456) |
| binds | endogenous TELO2 (from UniProt Q9Y4R8 1-837) |
| binds | endogenous RAPTOR (from UniProt Q8N122 1-1335) |

Results are given in words; binding and its absence hold for the method and conditions named. Binding seen in cells or lysates may run through a third protein. Here binding means that the protein was enriched with, or labelled near, the bait; the list need not be complete.
